Laboratory results as given in PubChem BioAssay AID504847 (National Center for Advancing Translational Sciences (NCATS), 2011).
The campaign covered roughly 400,000 compounds. About 3,700 (0.93%) were called active. This list was built around the results that the source calls inconclusive (neither active nor inactive); the mix of calls is not that of the screen. Calls come from the whole dose curve; as a rule, active = well fitted inhibition curve with a large enough effect; inconclusive = small, poorly fitted or top-dose-only effect, or another doubt; inactive = no such curve, though single readings can be large or run the other way. Where the call is inconclusive, the potency comes from a doubtful curve fit.

Amino acid sequences for entries named in this document (tags omitted). A change or cut given only in a name is not applied to a line headed by its entry.
UniProt P11473: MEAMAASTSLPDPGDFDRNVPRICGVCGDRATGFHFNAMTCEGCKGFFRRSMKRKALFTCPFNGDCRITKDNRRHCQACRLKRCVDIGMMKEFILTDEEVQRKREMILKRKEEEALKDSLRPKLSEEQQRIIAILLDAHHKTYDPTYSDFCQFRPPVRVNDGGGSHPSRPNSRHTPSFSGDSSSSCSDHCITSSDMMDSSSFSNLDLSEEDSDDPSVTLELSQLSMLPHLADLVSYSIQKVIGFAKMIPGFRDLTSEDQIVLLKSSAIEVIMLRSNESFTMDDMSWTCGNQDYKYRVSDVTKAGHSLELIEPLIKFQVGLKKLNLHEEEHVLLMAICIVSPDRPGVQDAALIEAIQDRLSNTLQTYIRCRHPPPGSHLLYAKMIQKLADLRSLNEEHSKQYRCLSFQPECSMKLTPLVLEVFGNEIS

Molecular target: Vitamin D3 receptor (Homo sapiens) (UniProt P11473)
Assay: Inhibitors of the vitamin D receptor (VDR): qHTS
Conditions: VDR-SRC2-3 peptide fluorescence polarization, 2 h; max response, negative = inhibition: hits give low values
Method in brief: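 Fluorescence polarization assay of small-molecule disruption of VDR binding to coregulator peptide SRC2-3. Compounds and controls pin-transferred, then read after 2 h incubation at ambient room temperature.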
% is set by controls: 0 for no effect and ±100 for the full control effect; potency is the fitted concentration of half-maximal effect.

Max response, negative = inhibition, inactive:
CCn1c(N2CCN(S(=O)(=O)c3ccccc3)CC2)nc2ccccc21 -20.8%
CC(Nc1cc(N2CCN(S(C)(=O)=O)CC2)ccc1[N+](=O)[O-])c1ccccc1 (stereo unspecified) 5.57%
COc1ccc(N2CCN(C(C)C(=O)N(C)Cc3ccccc3)CC2)cc1 (stereo unspecified) 4.86%
CCCCC(CC)COS(=O)(=O)O (stereo unspecified) 1.95%
CN(C)CCCN(C(=O)c1ccc(S(=O)(=O)N(C)Cc2ccccc2)cc1)c1nc2cc3c(cc2s1)OCO3 3.46%
O=C(c1ccc(CS(=O)(=O)c2c(Cl)cccc2Cl)o1)N1CCN(c2ccccc2)CC1 -13%
CCOc1ccc(/C=C/c2nc(C#N)c(N3CCN(c4ccccc4)CC3)o2)cc1 -0.884%
COC(=O)CSc1nnc(CNc2ccc(Cl)cc2)n1-c1ccccc1 8%
CSc1ccc(CN2C(=O)NC3(CCCCC3)C2=O)cc1 3.5%
Cc1ccc(CSC2=Nc3ccccc3C3=NC(CCC(=O)NCCc4ccccc4)C(=O)N23)cc1 (stereo unspecified) -7.56%
CCN(CC)c1ccc(NC(=O)COC(=O)/C=C/c2nc3ccccc3s2)cc1 -8.13%
CC(=O)N1c2ccccc2C(=O)C1N1CCN(c2cccc(C)c2C)CC1 (stereo unspecified) 15.3%
S=c1[nH]nc(-c2ccco2)n1/N=C/c1ccc(Cl)c(Cl)c1 -21.1%
NS(=O)(=O)c1cc(C(=O)N=Nc2c(O)[nH]c3ccccc23)ccc1Cl -2.6%

Retrieved one by one from the list above (three):
Max response, negative = inhibition, inactive:
CCOc1ccc(/C=C/c2nc(C#N)c(N3CCN(c4ccccc4)CC3)o2)cc1 -0.884%
CN(C)CCCN(C(=O)c1ccc(S(=O)(=O)N(C)Cc2ccccc2)cc1)c1nc2cc3c(cc2s1)OCO3 3.46%
S=c1[nH]nc(-c2ccco2)n1/N=C/c1ccc(Cl)c(Cl)c1 -21.1%

Compounds above containing a furan ring, fused or not, in the order listed:
Max response, negative = inhibition, inactive:
O=C(c1ccc(CS(=O)(=O)c2c(Cl)cccc2Cl)o1)N1CCN(c2ccccc2)CC1 -13%
S=c1[nH]nc(-c2ccco2)n1/N=C/c1ccc(Cl)c(Cl)c1 -21.1%

Next part:

Potency, active:
C=CCNC(=O)/C(C#N)=C/c1ccc(OS(=O)(=O)c2ccc(C)cc2)c(OC)c1 28.2 µM
Cn1nc(C(F)(F)F)c(/C=N/OC(=O)c2ccccc2)c1Sc1ccc(Cl)cc1 89.1 µM
CC(=O)OC1CC[C@]2(C)C(CC(OC(C)=O)[C@@]3(C)C4=CC(=O)OC(c5ccoc5)[C@]4(C)CCC23)C1(C)C (stereo partly specified) 25.1 µM
Cc1oc(=O)c(NC(=O)c2ccc(Cl)cc2)cc1C(=O)c1ccccc1 25.1 µM

Potency, inconclusive:
CN(C)S(=O)(=O)c1ccc(C(=O)N(c2ccccn2)c2ccccn2)cc1 1.78 µM [inhibitor, partial curve, poor fit]
C#CCOCCOCCOCCNc1nc(N2CCN(C(=O)CCCCCCCCCCNC(=O)[C@H](CCCCN)n3cc(CCCC(=O)O)nn3)CC2)nc(N2CCN(C(=O)CCCCCCCCCCNC(=O)[C@H](CCCCN)n3cc(CCCC(=O)O)nn3)CC2)n1 70.8 µM [inhibitor, partial curve, poor fit]
CSc1ccccc1OCc1cc(C(=O)N(C)CCn2nc(C)cc2C)no1 35.5 µM [inhibitor, partial curve, poor fit]
COc1ccc(S(=O)(=O)N(CC(C)C)CC(C)C)c2cccnc12 11.2 µM [inhibitor, partial curve, poor fit]
CCN(CC)S(=O)(=O)c1ccc2oc(SCC(=O)Nc3cc(C)on3)nc2c1 70.8 µM [inhibitor, partial curve, poor fit]
CCOC(=O)c1ccc(NC(=O)CSCc2ccco2)cc1 56.2 µM [inhibitor, partial curve, poor fit]
CCC(C)(C)NC(=O)CN(Cc1ccco1)C(=O)CCC(=O)Nc1nccs1 89.1 µM [inhibitor, single point]
CC(=O)Nc1ccc(Oc2cc(NC(C)=O)cc([N+](=O)[O-])c2)cc1 56.2 µM [inhibitor, partial curve, poor fit]
Cc1sc2nc(CSCC(=O)Nc3ccc(N4CCOCC4)cc3)[nH]c(=O)c2c1C 31.6 µM [inhibitor, partial curve, poor fit]
CCOC(=O)C1CCN(C(=O)c2ccccc2NS(=O)(=O)c2ccccc2)CC1 89.1 µM [inhibitor, partial curve, poor fit]
CC(=O)c1ccc(-c2cccc(C3C4C=CCCC4(C)C(=O)N3Cc3ccccc3)c2)cc1 (stereo unspecified) 89.1 µM [inhibitor, partial curve]
Cc1ccc(O)c(C2=Nc3ccccc3N=C(c3cccc(F)c3)C2)c1 89.1 µM [inhibitor, single point]
CC(C)(C)C(=O)n1nc(-c2ccccc2)oc1=O 89.1 µM [inhibitor, single point]
CCn1c(CSc2nc3ccccc3[nH]2)nc2cc(C(=O)O)ccc21 15.8 µM [inhibitor, full curve, poor fit]
Cc1ccc2c(c1)/C(=C/c1ccc(F)cc1)C(=O)N2 17.8 µM [inhibitor, full curve]
Cc1cccc(NC(=O)CSc2nnc([C@H](C)NC(=O)OC(C)(C)C)o2)c1C 11.2 µM [inhibitor, partial curve, poor fit]
N#Cc1ccc(-n2nccc2-c2cnc3n(c2=O)CCS3)cc1 35.5 µM [inhibitor, full curve, poor fit]
Clc1ccccc1CN1CCN(CCCc2ccccc2)CC1 70.8 µM [inhibitor, single point]
FC(F)(F)c1ccccc1-c1cncnc1NCc1cccs1 44.7 µM [inhibitor, partial curve, poor fit]
COc1ccc(N2CCN(C(=O)CCCn3c(=O)[nH]c4ccsc4c3=O)CC2)cc1 44.7 µM [inhibitor, partial curve, poor fit]
O=C1NC[C@@H](Cc2cccc3ccccc23)N(CCC23CC4CC(CC(C4)C2)C3)C1=O 39.8 µM [inhibitor, partial curve, poor fit]
COc1ccc(NC(=O)c2ccc(COc3ccccc3)o2)cc1 22.4 µM [inhibitor, partial curve]
Cc1ccc(/C=C2/NC(=O)N(c3ccccc3)C2=O)o1 89.1 µM [inhibitor, single point]
COc1ccccc1CCC(=O)OCC(=O)N1c2ccccc2NC(=O)C1(C)C 79.4 µM [inhibitor, partial curve, poor fit]
Nc1nc(N)c2ncc(C(=O)CCc3ccccc3)nc2n1 22.4 µM [inhibitor, full curve]
COc1ccc2c(c1)OC(=O)CC2c1ccccc1OC (stereo unspecified) 126 µM [inhibitor, partial curve, poor fit]
CN(C)C(=O)CCc1ccc2c3c([nH]c2c1)[C@]1(CCc2ccccc2)[C@@H](C(=O)N2CCCCC2)C[C@H](CC(=O)NCc2cccc(C(F)(F)F)c2)C(=O)N1CC3 79.4 µM [inhibitor, partial curve]
CC(=O)Nc1ccc(C(=O)Nc2nc(-c3cccnc3)cs2)cc1 79.4 µM [inhibitor, partial curve]
COc1ccc(OC)c(NC(=O)CSc2sc3c(O)cc(=O)[nH]c3c2C#N)c1 89.1 µM [inhibitor, partial curve, poor fit]
Cc1cc2oc(C(=O)N3CCN(CCc4ccccn4)CC3)c(C)c2cc1C 100 µM [inhibitor, single point]
COc1ccc(-c2nc(S(=O)(=O)c3ccc(Cl)cc3)c(N3CCCCCC3)o2)cc1 100 µM [inhibitor, single point]
CC1CC(C)CN(C(=O)c2ccc(-c3ccc([N+](=O)[O-])cc3)o2)C1 (stereo unspecified) 89.1 µM [inhibitor, partial curve]
O=C(/C=C/c1ccc(Cl)cc1)N1CCN(Cc2ccccc2)CC1 89.1 µM [inhibitor, single point]
CC1CCCN(C2=C(Cl)C(=O)N(c3cccc(Cl)c3)C2=O)C1 (stereo unspecified) 79.4 µM [inhibitor, single point]
CN1CCN(c2ncc3nc(-c4cc(F)cc(F)c4)c(=O)n(-c4ccccc4)c3n2)CC1 70.8 µM [inhibitor, partial curve, poor fit]
O=C(Nc1cccc(F)c1)Nc1ccnn1C1CCN(C(=O)c2ccccn2)CC1 89.1 µM [inhibitor, partial curve, poor fit]
CCOC(=O)c1c(NC(=O)C2CCCO2)sc(C(=O)OC(C)(C)C)c1C (stereo unspecified) 79.4 µM [inhibitor, partial curve, poor fit]
COc1ccc(CCNC(=O)c2noc(C(C)C)c2[N+](=O)[O-])cc1OC 89.1 µM [inhibitor, single point]
COC(=O)c1ccc(C(=O)OC)c(-n2c(=O)c3ccccc3c3ccccc3c2=O)c1 79.4 µM [inhibitor, single point]
Oc1ccc(Br)cc1C1C=C(c2ccc3c(c2)OCO3)NC(c2c(F)cccc2Cl)N1 (stereo unspecified) 39.8 µM [inhibitor, partial curve, poor fit]
NC1=NC(=O)NC1(c1ccccc1)c1ccccc1 89.1 µM [inhibitor, single point]
O=C1NC(=S)N/C1=C\c1ccc(N2CCOCC2)cc1 39.8 µM [inhibitor, partial curve, poor fit]
Cc1ccc(S(=O)(=O)NNc2ccccc2)c(C)c1 22.4 µM [inhibitor, full curve, poor fit]
